# Assay results taken from the supplement of paper PMC5407854, “Inhibitor of ppGalNAc-T3-mediated O-glycosylation blocks cancer cell invasiveness and lowers FGF23 levels” (eLife, 2017).
# This is one part of the list. Most values lie at the level of the controls, where differences are scatter.
# Key:
# ppGalNAc-T3 sensor = experiment: T3 sensor activation Q score (MG/GFP ratio z-score vs DMSO controls) (SD units); higher = more sensor activation (inhibition of ppGalNAc-T3 glycosylation); conditions: HEK293 sensor cells; 10 µM; 6 h
# Protocol: (§1)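 Cells were treated with compound at 10 uM for 6 h, then MG/GFP ratio was read by flow cytometry (10,000 cells per well, duplicate wells). Q = (R - R_neg)/SD_neg relative to DMSO vehicle controls; the signal rises when the glycosyltransferase is inhibited.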
# ppGalNAc-T2 sensor = experiment: T2 sensor activation Q score (MG/GFP ratio z-score vs DMSO controls) (SD units); higher = more sensor activation (inhibition of ppGalNAc-T2 glycosylation); conditions: HEK293 sensor cells; 10 µM; 6 h
# Protocol: as §1
SMILES,T3 sensor activation Q score (ppGalNAc-T3 sensor),T2 sensor activation Q score (ppGalNAc-T2 sensor)
O=C1NC(c2ccccc2)C(=C(O)c2ccccc2)C1=O (centres undefined),-0.835,-0.175
CC(=O)Nc1ccc(S(=O)(=O)O)cc1,-0.185,-1.91
CCCc1ccc(C(C)NC(=O)c2cc(C)on2)cc1 (centres undefined),0.87,-0.4
CCOc1ccc(CN2CCN(Cc3ccc4c(c3)OCO4)CC2)cc1,-0.505,-0.545
O=c1[nH]c2ccc(S(=O)(=O)NC3CCCC3)cc2[nH]1,-0.66,0.05
CC(=O)c1cc(F)c(N2CCN(C(=O)c3ccc(F)cc3F)CC2)cc1C,0.835,0.18
CCOc1ccc(NC(=O)c2cccs2)cc1,-0.66,0.53
O=C(CCc1ccccc1)Nc1ccc(F)cc1F,0.455,-0.77
CCCC(NS(=O)(=O)c1ccc(C)cc1)C(=O)O (centres undefined),-1.06,-1.22
c1ccc2c(c1)nc(N1CCCC1)n2CCN1CCCCC1,-0.635,0.475
[O-][n+]1onc2c1CCc1nnccc1-2,-0.52,0.165
CCN1CCN(CC(O)COc2cc(C)c(Cl)c(C)c2)CC1 (centres undefined),-0.155,-0.66
CCOc1ccccc1NC(=O)Nc1ccc(Cl)cc1,0.525,0.515
Nc1ccc(S(=O)(=O)NCCO)cc1,2.15,1.22
CC(=O)c1c(C)nc(C)c(C(C)=O)c1-c1ccccc1,0.205,0.255
O=C(NN1CCOCC1)c1cccs1,0.29,0.51
CC1(C)CC(=O)C2=C(C1)Nc1ccccc1NC2c1cccc([N+](=O)[O-])c1 (centres undefined),0.105,-1.04
Cc1c(C(=O)NC2CC(C)(C)NC(C)(C)C2)cccc1[N+](=O)[O-],0.12,-0.13
COc1ccc2c(Cl)c(C(=O)O)sc2c1,-0.93,-1.2
NS(=O)(=O)c1ccc(C23CC4CC(CC(C4)C2)C3)cc1,2.9,1.34
O=C(NC(=O)c1ccccc1)Oc1ccc(F)cc1,0.465,-0.495

SMILES,T3 sensor activation Q score (ppGalNAc-T3 sensor),T2 sensor activation Q score (ppGalNAc-T2 sensor)
Cc1ccc2oc(-c3cccc(NC(=O)c4ccccc4I)c3)nc2c1,-0.045,-0.155
CC(=O)Nc1ccc(S(=O)(=O)N2CCCCCC2)cc1,0.145,0.295
CCNCC(=O)N1c2ccccc2CCc2ccc(NC(C)=O)cc21,-0.16,1.61
Nc1nc(N)nc(-c2ccc(Oc3ccccc3)cc2)n1,0.62,0.845
O=CNC(Cc1ccccc1)C(=O)O (centres undefined),0.365,-0.6
Cn1c(COc2ccccc2Br)nc2ccccc21,0.075,0.36
c1ccc(-c2cn3ccsc3n2)cc1,0.03,-1.25
COc1cc(CO)c(C2(C(=O)O)CCCC2)cc1OC,0.365,0.7
Cc1ccc(CNc2ccc3c(c2)OCO3)c(C)c1,-2.44,-6.99
O=[N+]([O-])c1cc2c(cc1CN1CCN(c3ccc(F)cc3)CC1)OCO2,0.17,-0.96
Cc1c(Cl)cccc1NC(=O)C(c1ccccc1)c1ccccc1,0.225,0.76
CCN(CCN(C)C)Cc1cccc(C)c1,1.01,-0.59
CC(C)(C)C(=O)NCCCc1ccccc1,0.715,-0.115
O=C(O)CCNCc1ccccc1,-0.86,-1.66
Cc1ccccc1CN(C)CCN(C)C,-0.435,0.19
CN(C)CCN(C)Cc1ccc(Br)cc1,0.02,1.43
COc1ccc(-n2ccc3ccccc32)cc1,-0.66,0.66
CCc1nc2c(c(=O)[nH]1)C1(CCCCC1)Cc1ccccc1-2,-0.535,-0.43
COc1cc(C)nc(NN)n1,0.285,0.74
CCc1cccc(NC2CC(=O)N(c3cccc(Cl)c3)C2=O)c1 (centres undefined),-0.17,-0.395
Cc1ccc(OCCCN2CCOCC2)c(C)c1,0.47,1.16

SMILES,T3 sensor activation Q score (ppGalNAc-T3 sensor),T2 sensor activation Q score (ppGalNAc-T2 sensor)
O=C1C2ON(c3ccccc3)C(c3ccc(F)cc3)C2C(=O)N1Cc1ccccc1 (centres undefined),0.695,-1.09
COc1ccccc1N1CCN(C(=O)c2ccc(F)cc2)CC1,-0.53,-0.89
COc1ccc(S(=O)(=O)Nc2ccccc2Cl)cc1,-0.305,-0.61
CCOc1ccc(N=C(c2cccc([N+](=O)[O-])c2)N2CCOCC2)cc1,0.065,-0.18
Cc1nn(C)c(C)c1NC(=O)c1ccnn1C,0.43,0.575
C=CCn1c(-c2ccc(OC)cc2)nc2ccccc21,-0.375,-1.06
CCOC(=O)N1CCN(Cc2ccccc2F)CC1,0.085,0.425
Cc1cc(C)c(S(=O)(=O)NCC(=O)O)c(C)c1,-0.455,1.35
COc1ccccc1-c1ncnn1-c1cccc(Cl)c1C,-0.63,1.01
Cc1cc(C)n(C(=O)c2ccc(F)cc2)n1,0.635,0.5
CN(C)Cc1ccccc1C(O)(c1ccccc1)c1ccccc1,-0.255,0.775
CC1CC(=O)Nc2cc([N+](=O)[O-])ccc2N1 (centres undefined),-0.05,-1.04
CC(C)c1cc(C(C)C)c(S(=O)(=O)NCCO)c(C(C)C)c1,-0.13,-0.745
OCCSc1nc2ccccc2s1,-0.745,-1.23
COc1ccc(OC)c(CN2CCC(O)CC2)c1,0.15,0.155
CCN(CC)C(=O)C1CCCN(Cc2cccc(OC)c2OC)C1 (centres undefined),0.33,-0.4
CCCNC(=O)Nc1ccc(C(=O)O)cc1,0.68,0.09
CCC(=O)N1CCN(c2ccc([N+](=O)[O-])cc2)CC1,0.35,-0.53
Nc1nnc(COc2ccccc2)s1,1.25,1.65
O=C(Nc1ccccc1)Nc1ccccc1C#Cc1ccccc1,-0.22,-0.14
OCCN(CCO)CC1CC=CCC1 (centres undefined),0.2,-0.035

SMILES,T3 sensor activation Q score (ppGalNAc-T3 sensor),T2 sensor activation Q score (ppGalNAc-T2 sensor)
Cc1cccc(OCCCCN2CCCCC2)c1,-0.445,-0.39
CN(C)CCN(C)Cc1ccc(Cl)cc1,-0.19,1.42
COc1cc(OC)c(CN2CCCN(C)CC2)cc1Br,-0.33,0.57
CCN(CC)C(=O)C1CCCN(Cc2cccc(Br)c2)C1 (centres undefined),-0.235,-0.64
CCc1ccccc1NC(=O)Nc1cccc(Cl)c1,0.065,-0.13
COc1ccc2nc(N3CCOCC3)cc(C)c2c1,0.24,-0.195
CCc1nc(C)cc([N+](=O)[O-])c1O,0.95,-0.845
c1ccc(OCCCn2ccnc2)cc1,0.435,-0.845
Cc1n[nH]c(C)c1Sc1ccc(Cl)cc1,0.295,0.4
Cc1ccc(N2Cc3ccccc3C2=O)cc1,0.6,-0.68
CCOc1cc(CN2CCN(c3cccc(C)c3C)CC2)ccc1O,0,-0.16
O=C(Nc1ccncc1)c1ccccc1F,-0.565,0.32
CCc1ccccc1NS(=O)(=O)c1cc(Cl)ccc1OC,-0.43,0.185
CCOc1ccccc1N1CCN(Cc2ccc(Br)s2)CC1,-0.155,-0.405
CN(C)c1nc(N(C)C)nc(N(C)C)n1,-0.035,0.805
Cc1ccccc1CN1CCN(c2ccccn2)CC1,-0.135,-0.65
Cc1ccc(N2C(=O)Cn3c2nc2c3c(=O)n(C)c(=O)n2C)cc1C,0.31,0.355
CC(=O)C1=C(O)C(=O)N(C)C1c1ccccc1 (centres undefined),0.76,0.22
CC1(C)CC(CC(=O)NN)(c2ccccc2)CCO1 (centres undefined),0.13,-0.135

# A different layout for five compounds above:
SMILES	T3 sensor activation Q score (ppGalNAc-T3 sensor)	T2 sensor activation Q score (ppGalNAc-T2 sensor)
c1ccc(OCCCn2ccnc2)cc1	0.435	-0.845
Cc1n[nH]c(C)c1Sc1ccc(Cl)cc1	0.295	0.4
Cc1ccc(N2Cc3ccccc3C2=O)cc1	0.6	-0.68
CCOc1cc(CN2CCN(c3cccc(C)c3C)CC2)ccc1O	0	-0.16
O=C(Nc1ccncc1)c1ccccc1F	-0.565	0.32
